# From paper PMC5381194, “On-chip in vitro cell-network pre-clinical cardiac toxicity using spatiotemporal human cardiomyocyte measurement on a chip” (Scientific Reports, 2014)
# By UniProt entry, the sequences of proteins in these tests, tags left out. Where a name states a change or a piece, a line headed by the entry shows the natural chain unless it says otherwise.
# UniProt Q12809: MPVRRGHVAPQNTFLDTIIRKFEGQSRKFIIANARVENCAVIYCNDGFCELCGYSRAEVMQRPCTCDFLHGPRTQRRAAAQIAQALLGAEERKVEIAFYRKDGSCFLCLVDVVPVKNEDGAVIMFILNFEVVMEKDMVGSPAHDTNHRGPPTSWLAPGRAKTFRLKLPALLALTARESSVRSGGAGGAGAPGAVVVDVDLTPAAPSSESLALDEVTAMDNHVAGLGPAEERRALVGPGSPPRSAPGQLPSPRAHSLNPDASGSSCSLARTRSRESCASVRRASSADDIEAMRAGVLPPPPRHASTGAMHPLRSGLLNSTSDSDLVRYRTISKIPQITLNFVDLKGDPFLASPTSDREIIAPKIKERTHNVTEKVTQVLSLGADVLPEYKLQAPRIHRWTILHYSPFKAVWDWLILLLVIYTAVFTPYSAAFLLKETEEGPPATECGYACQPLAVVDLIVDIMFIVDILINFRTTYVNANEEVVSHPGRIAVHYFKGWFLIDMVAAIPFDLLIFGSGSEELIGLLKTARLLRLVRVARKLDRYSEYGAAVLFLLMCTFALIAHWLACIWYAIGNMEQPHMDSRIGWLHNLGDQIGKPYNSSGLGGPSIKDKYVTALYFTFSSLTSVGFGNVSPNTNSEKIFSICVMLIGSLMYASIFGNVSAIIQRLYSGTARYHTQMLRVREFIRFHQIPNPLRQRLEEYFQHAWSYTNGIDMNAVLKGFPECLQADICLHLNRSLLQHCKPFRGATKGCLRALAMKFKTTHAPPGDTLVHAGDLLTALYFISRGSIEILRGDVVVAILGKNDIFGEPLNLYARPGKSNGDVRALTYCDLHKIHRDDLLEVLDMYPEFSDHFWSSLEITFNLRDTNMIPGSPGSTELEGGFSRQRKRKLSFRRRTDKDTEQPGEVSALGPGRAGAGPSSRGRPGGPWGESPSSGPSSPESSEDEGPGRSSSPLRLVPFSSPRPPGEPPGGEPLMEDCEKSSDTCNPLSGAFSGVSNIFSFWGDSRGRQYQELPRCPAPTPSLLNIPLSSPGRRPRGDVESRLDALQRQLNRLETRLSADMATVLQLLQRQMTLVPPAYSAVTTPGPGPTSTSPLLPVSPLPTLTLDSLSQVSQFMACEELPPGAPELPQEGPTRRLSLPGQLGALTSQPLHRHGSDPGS
# Columns and labels:
# hERG = hERG (Homo sapiens, UniProt Q12809); conditions: ref references and pharmaceutical attachments; cited from earlier work
# [1] = system: human embryonic stem cell-derived cardiomyocyte cluster (hES-CMC); assay: On-chip MEA field potential recording of hCM clusters (temporal FPD and STVFPD); conditions: 1 μM (Ref. dose ca. 10^2 × CMAX), ratio against the control, mean ± S.E.
smiles,measurement,setting,value
CC(C)(C)c1ccc(C(=O)CCCN2CCC(OC(c3ccccc3)c3ccccc3)CC2)cc1 [Ebastine],hERG inhibition (positive or negative risk),hERG,(+)
same,FPD (ratio),[1],1.07 ± 0.03 ratio
same,STVFPD (ratio),[1],1.64 ± 0.28 ratio
